This test deals with P388 leukemia ip, CD2F1 mice, survival T/C. In words: NCI In Vivo Anticancer Drug Screen. Data for tumor model P388 Leukemia (intraperitoneal) in CD2F1 (CDF1) mice. Conditions: T/C endpoint: median survival time, higher T/C = longer survival.
[1] abbreviates: dose: 50.0 mg/kg/injection, schedule: Q01DX009 (ip), vehicle: saline with Tween-80.
Setting [2] is: dose: 100.0 mg/kg/injection, schedule: Q01DX009 (ip), vehicle: saline with Tween-80.
Setting [3] is: dose: 100.0 mg/kg/injection, schedule: Q04DX002 (ip), vehicle: saline with Tween-80.
[4] abbreviates: dose: 200.0 mg/kg/injection, schedule: Q04DX002 (ip), vehicle: saline with Tween-80.
[5] abbreviates: dose: 400.0 mg/kg/injection, schedule: Q04DX002 (ip), vehicle: saline with Tween-80.
Setting [6] is: dose: 120.0 mg/kg/injection, schedule: Q01DX005 (ip), vehicle: saline.
Where [7] appears, read: dose: 240.0 mg/kg/injection, schedule: Q01DX005 (ip), vehicle: saline.
Where [8] appears, read: dose: 12.5 mg/kg/injection, schedule: Q01DX009 (ip), vehicle: saline with Tween-80.
Setting [9] is: dose: 25.0 mg/kg/injection, schedule: Q01DX009 (ip), vehicle: saline with Tween-80.
Where [10] appears, read: dose: 200.0 mg/kg/injection, schedule: Q01DX005 (ip), vehicle: saline with Tween-80.
Where [11] appears, read: dose: 100.0 mg/kg/injection, schedule: Q01DX005 (ip), vehicle: Klucel (hydroxypropylcellulose) (HPC).
[12] abbreviates: dose: 200.0 mg/kg/injection, schedule: Q01DX005 (ip), vehicle: Klucel (hydroxypropylcellulose) (HPC).

The list does not hold the whole screen: it is rich in T/C values a quarter to a half above the control, in often repeated tests (any T/C) and in doses without a T/C. Further doses and runs are listed elsewhere. T/C is the treated group as % of the vehicle group. Some doses have a count of surviving animals in place of a T/C: the source files T/C as zero there, which appears to mark a toxic dose or a test without result, not a measured value. Some survivor counts are full or nearly so, which does not show that the dose was tolerated: the source hardly ever lists a survival T/C far under the control, and the zero likely stands for such cases as well. Survivors were counted at the toxicity check, usually on the fifth day, unless a day is given; later deaths do not show. Schedules are NCI's codes, read here as Q, the interval in days (D) or hours (H), X, the number of doses. Some doses were run more than once; the results are listed from low to high. For survival time, this PubChem deposit counts one and a half times the control or more as active, and values a quarter to a half above the control carry no call in these data; other NCI protocols may use other cut-offs. Brackets with × count equal records among those shown.

In the case of `CCCCCCCCSC1=C(Cl)C(=O)C(OC)=C(OC)C1=O`, the survivor count was 0 of 6 under setting [1]; 0 of 6 under setting [2]; 1 of 6 under setting [3]; 0 of 6 under setting [4]; 0 of 6 under setting [5].
With `C=C1C2CC[C@H]3C4(C)CCCC(C)(C(=O)O)[C@H]4CCC3(C2)[C@@H]1OC(C)=O` (stereo not given in full), the survivor count (dose: 3.5 mg/kg/injection, schedule: Q01DX005 (ip), vehicle: Klucel (hydroxypropylcellulose) (HPC)) was 6 of 6; the survivor count (dose: 7.0 mg/kg/injection, schedule: Q01DX005 (ip), vehicle: Klucel (hydroxypropylcellulose) (HPC)) was 6 of 6; the survivor count (dose: 14.0 mg/kg/injection, schedule: Q01DX005 (ip), vehicle: Klucel (hydroxypropylcellulose) (HPC)) is given as 6 of 6; the survivor count (dose: 28.0 mg/kg/injection, schedule: Q01DX005 (ip), vehicle: Klucel (hydroxypropylcellulose) (HPC)) is 6 of 6.
As to `O=C1OC(=O)C2c3ccccc3C=CC12` (stereo not given), the T/C (dose: 100.0 mg/kg/injection, schedule: Q01DX001 (ip), vehicle: saline with Tween-80) is 130 % of control.
With `C[N+]1(C)CCCC(C(=O)c2ccccc2)C1` (stereo not given), the survivor count is on record as 0 of 6 (dose: 60.0 mg/kg/injection, schedule: Q01DX005 (ip), vehicle: saline); 0 of 6 under setting [6]; 0 of 6 under setting [7].
With `N#Cc1ccc(NN=NCCS(=O)CCCl)cc1` (stereo not given), the T/C is, setting by setting: (dose: 50.0 mg/kg/injection, schedule: Q01DX009 (ip), vehicle: distilled water + Tween-80) 125 % of control; (dose: 100.0 mg/kg/injection, schedule: Q01DX009 (ip), vehicle: distilled water + Tween-80) 140 % of control.
For `CCCCCCCCCCCCNc1ccc(Cl)cc1`, under “dose: 200.0 mg/kg/injection, schedule: Q01DX009 (ip), vehicle: Klucel (hydroxypropylcellulose) (HPC)”, the T/C was 126 % of control.
On to `CC12OC1C(=O)C=CC2=O` (stereo not given), for which the survivor count (dose: 10.0 mg/kg/injection, schedule: Q04DX002 (ip), vehicle: saline with Tween-80) was 2 of 6; the survivor count (dose: 20.0 mg/kg/injection, schedule: Q04DX002 (ip), vehicle: saline with Tween-80) is 0 of 6; the survivor count under setting [3] is reported as 0 of 6; the survivor count under setting [4] was 0 of 6; the survivor count under setting [5] was 0 of 6.
Turning to `CC1=CC(C)(C)NC(=S)N1c1cccc(Cl)c1`, the survivor count under setting [8] was 6 of 6, the survivor count under setting [9] is 6 of 6 and the survivor count under setting [1] was 6 of 6.
Regarding `CC(C)=CCC(OC(=O)C=C(C)C)c1cc(O)c2c(O)ccc(O)c2c1O.[Cu]` (stereo not given), the survivor count under setting [5] was 6 of 6.
Take `CCCCCCCCCCCCCCCC[N+](C)(C)CCOS(C)(=O)=O`: the T/C was 125 % of control under setting [8], 131 % of control under setting [9] and 125 % of control under setting [1]. Besides, the survivor count was 3 of 6 and 5 of 6 under setting [1]; 0 of 6 under setting [2]; 0 of 6 (dose: 200.0 mg/kg/injection, schedule: Q01DX009 (ip), vehicle: saline with Tween-80).
For `NC(CS(=O)Cc1ccccc1)C(=O)O` (stereo not given), the survivor count under setting [10] is 1 of 5.
On to `C=CC(CO)N1CC1` (stereo not given), for which the survivor count runs as follows: (dose: 6.25 mg/kg/injection, schedule: Q01DX009 (ip), vehicle: saline) 6 of 6; (dose: 12.5 mg/kg/injection, schedule: Q01DX009 (ip), vehicle: saline) 6 of 6; (dose: 100.0 mg/kg/injection, schedule: Q04DX003 (ip), vehicle: saline with Tween-80) 0 of 6; (dose: 200.0 mg/kg/injection, schedule: Q04DX003 (ip), vehicle: saline with Tween-80) 0 of 6; (dose: 400.0 mg/kg/injection, schedule: Q04DX003 (ip), vehicle: saline with Tween-80) 0 of 6.
As to `COc1ccc(C(=O)CCN(C)C)c(OC)c1`, the survivor count runs as follows: under setting [6], 4 of 6; under setting [7], 0 of 6.
As for `CSc1nc(C)c(C(=O)CCN2CCOCC2)s1`, under setting [7], the survivor count is given as 0 of 6.
Consider `O=NN(CCS(=O)CCCl)C(=O)NC1CCCCC1` (stereo not given), for which the T/C (dose: 50.0 mg/kg/injection, schedule: Q01DX009 (ip), vehicle: water) is 133 % of control.
Turning to `COc1cc(/C=C(/NC(=O)c2ccccc2)C(O)=C(C#N)C#N)ccc1O`, the survivor count under setting [7] is listed as 6 of 6.
For the compound `BrC1c2ccccc2-c2nc3ccccc3nc21` (stereo not given), the survivor count reads like this: under setting [11], 4 of 6; under setting [12], 0 of 6.
`Nc1ccc(S(=O)(=O)c2ccc(N)cc2)cc1`: the T/C runs as follows: under setting [8], 89, 96, 100, 103, 124 % of control; under setting [9], 96, 99, 102, 103, 108 % of control; under setting [1], 98, 105 (3×), 116 % of control; under setting [2], 105 (2×), 106, 109, 114 % of control. Further, the survivor count was 4 of 6 (dose: 150.0 mg/kg/injection, schedule: Q01DX009 (ip), vehicle: saline with Tween-80); 1 of 5 under setting [12]; 0 of 5 (dose: 400.0 mg/kg/injection, schedule: Q01DX005 (ip), vehicle: Klucel (hydroxypropylcellulose) (HPC)).
Turning to `CCn1c(Cl)c(/C=N\Nc2ccccc2[N+](=O)[O-])c2ccccc21`, the survivor count is recorded as 6 of 6 (dose: 50.0 mg/kg/injection, schedule: Q01DX001 (ip), vehicle: Klucel (hydroxypropylcellulose) (HPC)); 6 of 6 (dose: 100.0 mg/kg/injection, schedule: Q01DX001 (ip), vehicle: Klucel (hydroxypropylcellulose) (HPC)); 6 of 6 (dose: 200.0 mg/kg/injection, schedule: Q01DX001 (ip), vehicle: Klucel (hydroxypropylcellulose) (HPC)); 6 of 6 (dose: 400.0 mg/kg/injection, schedule: Q01DX001 (ip), vehicle: Klucel (hydroxypropylcellulose) (HPC)).
With `CNC(=O)OCc1c(COC(=O)NC)c2n(c1C)CS(=O)(=O)C2`, the T/C is, setting by setting: (dose: 25.0 mg/kg/injection, schedule: Q01DX005 (ip), vehicle: saline with Tween-80) 139 % of control; (dose: 50.0 mg/kg/injection, schedule: Q01DX005 (ip), vehicle: saline with Tween-80) 140 and 147 % of control. The survivor count under setting [10] was 6 of 6.
Consider `O=[N+]([O-])c1ccccc1NN=NCCF`, for which the survivor count is, setting by setting: (dose: 25.0 mg/kg/injection, schedule: Q01DX005 (ip), vehicle: Klucel (hydroxypropylcellulose) (HPC)) 3 of 5; (dose: 50.0 mg/kg/injection, schedule: Q01DX005 (ip), vehicle: Klucel (hydroxypropylcellulose) (HPC)) 0 of 5; under setting [11], 0 of 5; under setting [12], 0 of 5.
Regarding `COc1ccc2c(c1)NC(=O)Cn1nnnc1-2`, the survivor count is, setting by setting: under setting [3], 6 of 6; under setting [4], 5 of 6.
Consider `O=CNC(Cc1cccc(N(CCCl)CCCl)c1)C(=O)O` (stereo not given), for which the survivor count is on record as 6 of 6 (dose: 50.0 mg/kg/injection, schedule: Q01DX009 (ip), vehicle: saline sonified) and 3 of 6 (dose: 100.0 mg/kg/injection, schedule: Q01DX009 (ip), vehicle: saline sonified).
As for `CCCN=c1c2c(OC)c(OC)ccc2cc2n1CCc1cc3c(cc1-2)OCO3`, the survivor count (dose: 20.0 mg/kg/injection, schedule: Q01DX009 (ip), vehicle: water) is 0 of 6.
As for `Cc1cnc(N/N=C/c2c(CO)cnc(C)c2O)s1`, the survivor count (dose: 60.0 mg/kg/injection, schedule: Q01DX005 (ip), vehicle: saline with Tween-80) is reported as 6 of 6.
Turning to `CC(C)n1c2c(c3ccccc3c1=O)C(=O)c1ccccc1-2`, the survivor count is recorded as 5 of 5 (dose: 100.0 mg/kg/injection, schedule: Q01DX005 (ip), vehicle: saline with Tween-80) and 5 of 5 under setting [10].

Source of the values: PubChem BioAssay AID330 (DTP/NCI, 2004).
